Laboratory results: PubChem BioAssay AID1224828 (NIAID, 2016)
In all, the deposit lists about 17,000 reagents; shown is an unselected part. 762 of all reagents (4.5%) were called active. 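Active calls include both raised and lowered p65 entry, mostly lowered; wells with fewer than 50 cells lack a z-score.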 Raw values vary from plate to plate and are shown uncorrected. A number with no mark means an inactive call.

Purpose: 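Regulators linking TLR4 signalling to p65 nuclear translocation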 (primary screen)
System: mouse RAW264.7 G9 macrophage reporter cells (GFP-p65, Tnf promoter-mCherry)
Reagents: siRNA pool against mouse genes, 100 nM
Time to read-out: 2 days siRNA transfection, then 40 min LPS before fixation
Treatment: LPS (Salmonella minnesota R595) at 10 ng/ml
Read-out: 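Imaged p65 nuclear translocation ratio, normalised to the plate median, converted to robust z-scores and averaged across two replicates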
Scale: p65 translocation robust z-score: higher = more nuclear NF-kappaB p65 after LPS than the plate median; nuclear/cytoplasmic p65 ratio: higher = more nuclear NF-kappaB p65
Hit rule: 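Called active when z exceeds 3.3 or falls under -1.56 (median of Tlr4 controls), giving activity score of at least 50; no calls for control wells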
Meaning of the calls: active = hit (p65 shift raised or lowered); inactive = no clear change

gene symbol | p65 translocation robust z-score | nuclear/cytoplasmic p65 ratio, rep 1 | nuclear/cytoplasmic p65 ratio, rep 2 | low cell count flag
Rcc1 | -0.37 | 1.38 | 1.36 | enough cells to score
Taf13 | 1.11 | 1.59 | 1.76 | enough cells to score
Ifi27l2a | -1.09 | 1.43 | 1.47 | enough cells to score
Pitrm1 | 0.02 | 1.49 | 1.42 | enough cells to score
Or2a54 | 1.05 | 1.58 | 1.21 | enough cells to score
Ywhae | -0.01 | 1.49 | 1.52 | enough cells to score
Hoxb3 | 0.07 | 1.43 | 1.4 | enough cells to score
Agpat5 | 0.27 | 1.58 | 1.61 | enough cells to score
Ivl | 0.98 | 1.63 | 1.62 | enough cells to score
Cirbp | -0.67 | 1.24 | 1.29 | enough cells to score
Tcp11 | – | 1.55 | 1.12 | fewer than 50 cells per well; well left out of scoring
Cln6 | -0.64 | 1.4 | 1.27 | enough cells to score
Alox8 | 0.45 | 1.63 | 1.75 | enough cells to score
Pou2f3 | -0.58 | 1.47 | 1.29 | enough cells to score
Zfp46 | – | 1.12 | 1.22 | fewer than 50 cells per well; well left out of scoring
Mnt | -1.1 | 1.29 | 1.21 | enough cells to score
H2-M10.1 | -0.54 | 1.48 | 1.48 | enough cells to score
Zcchc17 | 1.3 | 1.54 | 1.66 | enough cells to score
Hey1 | -1.59 (active) | 1.27 | 1.13 | enough cells to score
Or4a68 | – | 1.65 | 1.6 | fewer than 50 cells per well; well left out of scoring
Or1s2 | 0.85 | 1.65 | 1.61 | enough cells to score
V1rb5 (retired record) | 1.4 | 1.58 | 1.37 | enough cells to score
Zscan29 | 0.66 | 1.58 | 1.68 | enough cells to score
Pde5a | -0.64 | 1.38 | 1.31 | enough cells to score

3 entries already listed, sorted by “nuclear/cytoplasmic p65 ratio, rep 1”, descending.
gene symbol | p65 translocation robust z-score | nuclear/cytoplasmic p65 ratio, rep 1 | nuclear/cytoplasmic p65 ratio, rep 2 | low cell count flag
Taf13 | 1.11 | 1.59 | 1.76 | enough cells to score
Ifi27l2a | -1.09 | 1.43 | 1.47 | enough cells to score
Rcc1 | -0.37 | 1.38 | 1.36 | enough cells to score
